# Test results: patent US20240261443A1, “COMPOUNDS AND COMPOSITIONS USEFUL AS RADIOTRACERS FOR IMAGING OF REACTIVE OXIDATIVE SPECIES” (Wake Forest University Health Sciences, priority 2019, published 2024)
# Some entries share one result that the patent states for a list of compounds.
# System: SCC-61, G48, MD3-MB-231 and PC3 cancer cell lines
# Assay: MTT assay, potency versus ascorbate across patient-derived cancer cell lines
# Assay type: cell-based, human
# Conditions: Example 7; in SCC-61 and PC3 lines
# Description: The cells were seeded at density 5×10^3 cells/well. After 24 h pre-incubation period, cells were treated with 0.01 mM to 2.0 mM of freshly prepared KS1 and KS2 along with ascorbate (n=3) for 48 h. 0.2% of DMSO served as vehicle control. After 48 h, the solutions were removed from all plates and MTT assays performed following the published protocols. IC50 values are presented as mean±SD from at least three independent experiments.
# There is growing evidence for a therapeutic role of ascorbate against several cancers (Creagan et al., Failure of High-Dose Vitamin C (Ascorbic Acid) Therapy to Benefit Patients with Advanced Cancer. New England Journal of Medicine 1979, 301 (13), 687-690; Chen et al., Pharmacologic ascorbic acid concentrations selectively kill cancer cells: action as a pro-drug to deliver hydrogen peroxide to tissues. Proceedings of the National Academy of Sciences of the United States of America 2005, 102 (38), 13604-13609; Prasad et al., High Doses of Multiple Antioxidant Vitamins: Essential Ingredients in Improving the Efficacy of Standard Cancer Therapy. Journal of the American College of Nutrition 1999, 18 (1), 13-25). […]
smiles,measurement,value
"O=C1O/C(=C/CCl)C(O)=C1OCc1ccc(OCCF)cc1 [KS1, (E)-5-(2-chloroethylidene)-3-(4-(2-fluoroethoxy)benzyloxy)-4-hydroxyfuran-2(5H)-one]",selectivity (potency) over ascorbate,> 5 fold
